# In patent US20080124809A1, “Method of Interaction Observation” (RIKEN, priority 2004, published 2008):
# At least one compound was matched to its structure with a doubt left.
# Test system: anti-DIG antibody
# Experiment: SPR imaging of anti-DIG antibody binding to the immobilized small molecular array
# Details: 4 J/cm^2
compound,measurement,setting,value
"C[C@]12CC[C@H](O)C[C@H]1CC[C@@H]1[C@@H]2C[C@@H](O)[C@]2(C)[C@@H](C3=CC(=O)OC3)CC[C@]12O [DXH, digoxigenin hydrate]",binding of anti-DIG antibody to immobilized substance (FIG. 15),"Comparative Example 2: irradiated at 245 nm, 50 μg/mL antibody run for 5 minutes",observed
same,binding of anti-DIG antibody to immobilized substance (FIG. 12),"Example 1: photoimmobilized at 365 nm, 50 μg/mL antibody",obvious
